From the supplement of paper PMC8426693
This is one part of the list.

Legend:
Assay in all cases: NMR binding call after quantification (hit when 2 of 3 NMR criteria are met) (binary (1 = binding, 0 = not binding)); higher = binding
Settings in all cases: RNA concentration 10 µM; fragment concentration 200 µM; 293 K
[1] = tested on: SARS-CoV-2 5_SL7 RNA
[2] = tested on: SARS-CoV-2 5_SL8 RNA
[3] = tested on: SARS-CoV-2 attenuator hairpin (att HP) RNA
[4] = tested on: SARS-CoV-2 frameshift pseudoknot (PK) RNA

Measured: NMR binding call

CC(N)c1nc(Cc2ccccc2)no1.Cl (stereo not drawn)
0: [1] | [2] | [3] | [4]

CC1CCNC(C(N)=O)C1 (stereo not drawn)
0: [1] | [2] | [3] | [4]

Cl.NC1CCCN(C(=O)CCC(F)(F)F)C1 (stereo not drawn)
0: [1] | [2] | [3] | [4]

CC(=O)Nc1cccnc1C(=O)O
0: [1] | [2] | [3] | [4]

Fc1cccc(CNCc2ccco2)c1
0: [1] | [2] | [3] | [4]

CC1(C)CCCN1CCN
0: [1] | [2] | [3] | [4]

O=C(Nc1nccs1)C1CC1c1ccccc1 (stereo not drawn)
0: [1] | [2] | [3] | [4]

Among those listed so far, three have nitrogen in an aromatic ring.
CC(N)c1nc(Cc2ccccc2)no1.Cl (stereo not drawn)
0: [1] | [2] | [3] | [4]

CC(=O)Nc1cccnc1C(=O)O
0: [1] | [2] | [3] | [4]

O=C(Nc1nccs1)C1CC1c1ccccc1 (stereo not drawn)
0: [1] | [2] | [3] | [4]

More entries:

CCn1cc(CNC(=O)c2cccnc2)cn1
0: [1] | [2] | [3] | [4]

CN(C)C(=O)C1(C(=O)O)CC1
0: [1] | [2] | [3] | [4]

CC(=O)Nc1ccc(-c2csc(N)n2)cc1
0: [1] | [2] | [3] | [4]

CN(C)c1ccc(C(=O)Nc2ccncc2)cc1
1: [1] | [2]

Cc1ccc(S(=O)(=O)N(C)CCC#N)cc1
0: [1] | [2] | [3] | [4]

COC(=O)Nc1cc(C)n(-c2ccccc2)n1
0: [1] | [2] | [3] | [4]

4 entries drawn at random from those above, as already listed:
Cc1ccc(S(=O)(=O)N(C)CCC#N)cc1
0: [1] | [2] | [3] | [4]

CN(C)c1ccc(C(=O)Nc2ccncc2)cc1
1: [1] | [2]

CC(=O)Nc1ccc(-c2csc(N)n2)cc1
0: [1] | [2] | [3] | [4]

COC(=O)Nc1cc(C)n(-c2ccccc2)n1
0: [1] | [2] | [3] | [4]

Next part:

CS(=O)(=O)Nc1ccc(C(N)=O)cc1
0: [1] | [2] | [3] | [4]

Cn1cc(CNC(=O)c2ccco2)cn1
0: [1] | [2] | [3] | [4]

Cc1cc(NC(=O)CCC2CCCCC2)no1
0: [1] | [2] | [3] | [4]

CNC(=O)c1c(-c2ccc(F)cc2)noc1C
0: [1] | [2] | [3] | [4]

C1CC(Cc2nc(C3CC3)no2)CCN1
0: [1] | [2] | [3] | [4]

Nc1cccc(OCc2ccccc2)c1
0: [1] | [2] | [3] | [4]

Cc1cccc(C(=O)N2CCC(C(N)=O)CC2)c1
0: [1] | [2] | [3] | [4]

O=C(CC1CCCCC1)Nn1cnnc1
0: [1] | [2] | [3] | [4]

CCNC(=O)c1ccc(NS(C)(=O)=O)cc1
0: [1] | [2] | [3] | [4]

O=C(COc1ccc(F)cc1)N1CCCC1
0: [1] | [2] | [3] | [4]

CC1CCN(C(=O)CC(F)(F)F)CC1
0: [1] | [2] | [3] | [4]

O=C(COc1ccccc1)NC1CCCCC1
0: [1] | [2] | [3] | [4]

CC(C)Nc1ncccn1
0: [1] | [2] | [3] | [4]

NC(=O)c1ccc(NC(=O)c2ccccc2)cc1
0: [1] | [2] | [3] | [4]

COc1ccc(CNC(=O)CC#N)cc1
0: [1] | [2] | [3] | [4]

O=C(NCCc1ccc(O)cc1)c1ccccn1
0: [1] | [2] | [3] | [4]

CC(C)N(C)c1ncnc2c1cnn2C
0: [1] | [2] | [3] | [4]

CCOC(=O)CN1CCCCC1
0: [1] | [2] | [3] | [4]

CN(C)C(=O)N1CCOCC12CCOC2 (stereo not drawn)
0: [1] | [2] | [3] | [4]

CCn1cc(CCO)cn1
0: [1] | [2] | [3] | [4]

CC(=O)N1CCCC(C(N)=O)C1 (stereo not drawn)
0: [1] | [2] | [3] | [4]

Nc1ccc(S(=O)(=O)Nc2ccccc2)cc1
0: [1] | [2] | [3] | [4]

O=C(NCC1CC1)Nc1ccc2c(c1)CCO2
0: [1] | [2] | [3] | [4]

Cc1c(Cl)cccc1NC(=O)C1CCCO1 (stereo not drawn)
0: [1] | [2] | [3] | [4]

CC1CN(C(=O)Cn2cccn2)CCO1 (stereo not drawn)
0: [1] | [2] | [3] | [4]

Cc1cccc(C(=O)NCC(=O)O)c1
0: [1] | [2] | [3] | [4]

CC(N)CN1CCOCC1 (stereo not drawn)
0: [1] | [2] | [3] | [4]

Cc1cccc(C(=O)Nc2ccc(C)cc2O)c1
0: [1] | [2] | [3] | [4]

COC(=O)C1CCN(CC(N)=O)CC1
0: [1] | [2] | [3] | [4]

CC(C)C(=O)Nc1nnn(C)n1
0: [1] | [2] | [3] | [4]

NC(=O)N1CCN(c2ccc(F)cc2)CC1
0: [1] | [2] | [3] | [4]

CCOC(=O)c1ccc(F)cc1F
0: [1] | [2] | [3] | [4]

CNC(=O)c1cccc(C(=O)O)n1
0: [1] | [2] | [3] | [4]

CNC(=O)C1CCCc2sc(C)nc21 (stereo not drawn)
0: [1] | [2] | [3] | [4]

Cc1noc(CC(N)c2ccccc2)n1.Cl (stereo not drawn)
0: [1] | [2] | [3] | [4]

NC(=O)c1c[nH]c(C2CC2)n1
0: [1] | [2] | [3] | [4]

COC(=O)N1CCN(c2ccc(F)cc2)CC1
0: [1] | [2] | [3] | [4]

CCC(=O)NCc1nnc2n1CCCC2
0: [1] | [2] | [3] | [4]

CC(=O)Nc1ncc(Cc2cccc(C)c2)s1
0: [1] | [2] | [3] | [4]

CS(=O)(=O)N1CCC(C(=O)NC2CC2)CC1
0: [1] | [2] | [3] | [4]

CNC(=O)c1cnc(C)s1
0: [1] | [2] | [3] | [4]

CNCc1ccncc1
0: [1] | [2] | [3] | [4]

Cc1nc(C(=O)N2CCCC2)c(C)s1
0: [1] | [2] | [3] | [4]

CC(=O)c1cccc(NC(=O)N2CCOCC2)c1
0: [1] | [2] | [3] | [4]

N#Cc1cccc(NC(=O)CCC2CCCC2)c1
0: [1] | [2] | [3] | [4]

Fc1ccccc1CNC1CCOCC1
0: [1] | [2] | [3] | [4]

CC(=O)c1ccc(N2CCC(C(N)=O)CC2)cc1
0: [1] | [2] | [3] | [4]

NC(=O)C1CCC(F)(F)CC1
0: [1] | [2] | [3] | [4]

CC(O)CCn1cccn1 (stereo not drawn)
0: [1] | [2] | [3] | [4]

CCNC(=O)c1ccc(N(C)C)c(F)c1
0: [1] | [2] | [3] | [4]

Fc1ccc(CNCC2CCCO2)cc1 (stereo not drawn)
0: [1] | [2] | [3] | [4]

CS(=O)(=O)NCC1CCNCC1
0: [1] | [2] | [3] | [4]

Cc1cc(F)ccc1CS(N)(=O)=O
0: [1] | [2] | [3] | [4]

CN(CC(=O)O)C(=O)c1ccc(F)cc1
0: [1] | [2] | [3] | [4]

CC(C)N1CCCC(CO)C1 (stereo not drawn)
0: [1] | [2] | [3] | [4]

CC1CCCC1NCCO (stereo not drawn)
0: [1] | [2] | [3] | [4]

CC(=O)Nc1nnc(SC(C)C)s1
0: [1] | [2] | [3] | [4]

O=C(c1csnn1)N1CCOCC1
0: [1] | [2] | [3] | [4]

C1CN(CC2CCOCC2)CCN1
0: [1] | [2] | [3] | [4]

CCn1cc(NC(=O)C2CCC2)cn1
0: [1] | [2] | [3] | [4]

Cl.Cl.c1cn(CC2CCCCN2)nn1 (stereo not drawn)
0: [1] | [2] | [3] | [4]

CNc1ccccc1S(C)(=O)=O
0: [1] | [2] | [3] | [4]

c1coc(CNc2nc3ccccc3[nH]2)c1
0: [1] | [2] | [3] | [4]

Cc1nc(-c2ccccc2)no1
0: [1] | [2] | [3] | [4]

c1ccc(-c2ccc(-n3cnnn3)cc2)cc1
0: [2] | [3]
1: [1] | [4]

c1ccc2sc(N3CCOCC3)nc2c1
0: [1] | [2] | [3] | [4]

CCOC(=O)c1ccoc1
0: [1] | [2] | [3] | [4]

O=S1(=O)CCCN1Cc1cccc(F)c1
0: [1] | [2] | [3] | [4]

CC(C)(C)CC(=O)Nc1ccc(F)cc1F
0: [1] | [2] | [3] | [4]

c1ccc(CCNc2nc3ccccc3[nH]2)cc1
0: [1] | [2] | [3] | [4]

Cc1ccccc1OCC(=O)Nc1ccccc1
1: [4]
0: [1] | [2] | [3]

COC(=O)C1CCN(C(=O)NC(C)(C)C)CC1
0: [1] | [2] | [3] | [4]

O=C(c1c(F)cccc1F)N1CCCC1
0: [1] | [2] | [3] | [4]

CC(NS(C)(=O)=O)c1ccccc1Cl (stereo not drawn)
0: [1] | [2] | [3] | [4]

NC(=O)c1cnc(C(F)(F)F)nc1
0: [1] | [2] | [3] | [4]

Cn1nnc(NC(=O)c2ccc(F)cc2)n1
0: [1] | [2] | [3] | [4]

COc1ccc(CC(=O)Nc2nncs2)cc1
0: [1] | [2] | [3] | [4]

CNC1CCCN(c2cccnn2)C1 (stereo not drawn)
0: [1] | [2] | [3] | [4]

CC(=O)NCCc1ccccc1C
0: [1] | [2] | [3] | [4]

Oc1ccccc1CN1CCc2ccccc2C1
0: [1] | [2] | [3] | [4]

CS(=O)(=O)NC1CCNCC1
0: [1] | [2] | [3] | [4]

C1CC(c2nc(C3CC3)no2)CN1 (stereo not drawn)
0: [1] | [2] | [3] | [4]
